PubChem BioAssay AID652259, Drosophila RNAi Screening Center, 2013

- Purpose: 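Genome-wide hunt for genes that control Wingless pathway activity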 (primary screen)
- Cell system: Drosophila clone 8 imaginal disc epithelial cells
- Knock-down reagent: long dsRNA against Drosophila genes
- Conditions: pathway stimulated by co-transfected Wingless expression plasmid
- Measured: 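Dual luciferase reads per well after Wingless plasmid stimulation: reporter firefly light and Renilla control light; activity is firefly divided by Renilla, a ratio not deposited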
- Direction: firefly reporter light: higher = more Wg reporter light, before normalisation; Renilla control light: higher = more transfected or surviving cells
- Call rule: 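a knock-down is a candidate when at least two out of four statistical tests show it departing from its plate mean; one test alone signals a weak candidate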
- Meaning of the calls: active = candidate regulator (raises or lowers reporter); inactive = not a candidate
The screen tested about 22,000 reagents; shown is a random part of those that have a named target and a result. In the full data, 233 (1.1%) got an active call. 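Light values are raw, unnormalised plate reads; the ratio scores behind the reporter calls were not deposited.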 The numbers tell different reagents against one gene apart. A plus sign joins genes that one reagent is predicted to hit. Not stated in the record: the amount of reagent, the time to read-out, the dose of the treatment.

Gene	dsRNA no.	firefly reporter light, replicate 1	firefly reporter light, replicate 2	Renilla control light, replicate 1	Renilla control light, replicate 2	Call
fidipidine	1	8672		3254		inactive
flfl	1	10572		2676		inactive
gsb-n	1	24050		11189		inactive
gsb-n	2	3523	5188	713	2077	inactive
mle	1	4848	10608	832	2241	inactive
GABPI	1	7185		3192		inactive
Eig71Eb	1	9344		3872		inactive
mey	1	1776	5531	939	2336	inactive
Eip75B	1	2728		1253		inactive
Eip75B	2	6406		968		inactive
Hsp68	1	18534		16657		inactive
CG4770	1	13305		2957		inactive
IntS11	1	2500	6109	1290	2233	inactive
Muc68E	1	4482	7.71e5	2250	3.83e5	inactive
Kank	1	20901		17484		inactive
Kank	2	10432		3767		inactive
Neu2	1	18273		6042		inactive
CG4822	1	9988		2935		inactive
CG12912	1	1063	2161	132	349	inactive
t	1	20027		9349		inactive
Mvd	1	1400	5845	714	1552	inactive
etaTry	1	6742		2556		inactive
CG3746	1	2956	10486	746	3873	inactive
Or65b	1	3281		364		inactive
CG42272	1	3104		1408		inactive
CG42272	2	9.92e5	9.77e5	94604	57304	inactive
CG43439 + CG32388	1	3146		1280		inactive
CG9445	1	3256	5866	263	3193	inactive
CG31612	1	4103	10167	896	3734	inactive
CG31612	2	2282	5595	747	2377	inactive
